{
  "sequences": {"note": "Chains of the proteins cited; added tags and fusions are not shown. Lines headed by an entry give the natural chain unless they say otherwise; changes in a name come on top.", "UniProt Q9ULM3": "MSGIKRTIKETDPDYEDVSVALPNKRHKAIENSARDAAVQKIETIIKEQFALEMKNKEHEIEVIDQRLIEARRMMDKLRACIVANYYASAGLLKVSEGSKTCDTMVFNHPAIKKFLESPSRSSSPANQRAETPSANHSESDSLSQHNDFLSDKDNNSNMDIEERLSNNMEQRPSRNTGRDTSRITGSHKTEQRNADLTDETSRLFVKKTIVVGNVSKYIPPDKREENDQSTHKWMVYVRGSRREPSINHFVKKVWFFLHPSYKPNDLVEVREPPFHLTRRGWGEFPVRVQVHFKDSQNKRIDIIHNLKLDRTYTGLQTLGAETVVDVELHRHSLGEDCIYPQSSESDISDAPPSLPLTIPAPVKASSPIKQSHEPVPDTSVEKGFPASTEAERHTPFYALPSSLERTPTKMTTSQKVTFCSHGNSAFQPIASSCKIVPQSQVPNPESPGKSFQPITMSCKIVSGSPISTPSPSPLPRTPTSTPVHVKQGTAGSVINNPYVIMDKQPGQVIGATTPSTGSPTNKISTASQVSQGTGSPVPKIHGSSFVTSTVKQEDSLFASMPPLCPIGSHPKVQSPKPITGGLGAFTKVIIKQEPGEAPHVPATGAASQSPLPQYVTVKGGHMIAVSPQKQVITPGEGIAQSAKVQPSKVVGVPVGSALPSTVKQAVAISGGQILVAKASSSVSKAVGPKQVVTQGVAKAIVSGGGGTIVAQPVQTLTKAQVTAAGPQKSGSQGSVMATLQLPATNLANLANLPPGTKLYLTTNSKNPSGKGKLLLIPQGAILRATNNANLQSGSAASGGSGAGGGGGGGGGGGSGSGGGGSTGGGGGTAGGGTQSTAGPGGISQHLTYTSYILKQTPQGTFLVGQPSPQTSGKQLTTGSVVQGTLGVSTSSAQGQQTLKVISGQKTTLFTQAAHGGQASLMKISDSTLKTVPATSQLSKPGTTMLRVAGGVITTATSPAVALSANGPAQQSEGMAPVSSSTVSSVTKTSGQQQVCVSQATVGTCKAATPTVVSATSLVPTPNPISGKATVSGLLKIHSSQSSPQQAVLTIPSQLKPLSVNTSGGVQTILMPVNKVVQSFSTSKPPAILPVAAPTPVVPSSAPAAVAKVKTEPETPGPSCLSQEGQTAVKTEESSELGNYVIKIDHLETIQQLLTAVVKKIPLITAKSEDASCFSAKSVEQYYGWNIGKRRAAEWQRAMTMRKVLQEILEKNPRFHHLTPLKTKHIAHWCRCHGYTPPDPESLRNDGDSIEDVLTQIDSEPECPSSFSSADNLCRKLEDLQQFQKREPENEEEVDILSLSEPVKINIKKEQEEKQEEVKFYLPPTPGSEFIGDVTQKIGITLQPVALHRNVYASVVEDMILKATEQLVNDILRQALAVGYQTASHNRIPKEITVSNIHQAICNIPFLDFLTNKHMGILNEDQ", "UniProt Q9HAV4": "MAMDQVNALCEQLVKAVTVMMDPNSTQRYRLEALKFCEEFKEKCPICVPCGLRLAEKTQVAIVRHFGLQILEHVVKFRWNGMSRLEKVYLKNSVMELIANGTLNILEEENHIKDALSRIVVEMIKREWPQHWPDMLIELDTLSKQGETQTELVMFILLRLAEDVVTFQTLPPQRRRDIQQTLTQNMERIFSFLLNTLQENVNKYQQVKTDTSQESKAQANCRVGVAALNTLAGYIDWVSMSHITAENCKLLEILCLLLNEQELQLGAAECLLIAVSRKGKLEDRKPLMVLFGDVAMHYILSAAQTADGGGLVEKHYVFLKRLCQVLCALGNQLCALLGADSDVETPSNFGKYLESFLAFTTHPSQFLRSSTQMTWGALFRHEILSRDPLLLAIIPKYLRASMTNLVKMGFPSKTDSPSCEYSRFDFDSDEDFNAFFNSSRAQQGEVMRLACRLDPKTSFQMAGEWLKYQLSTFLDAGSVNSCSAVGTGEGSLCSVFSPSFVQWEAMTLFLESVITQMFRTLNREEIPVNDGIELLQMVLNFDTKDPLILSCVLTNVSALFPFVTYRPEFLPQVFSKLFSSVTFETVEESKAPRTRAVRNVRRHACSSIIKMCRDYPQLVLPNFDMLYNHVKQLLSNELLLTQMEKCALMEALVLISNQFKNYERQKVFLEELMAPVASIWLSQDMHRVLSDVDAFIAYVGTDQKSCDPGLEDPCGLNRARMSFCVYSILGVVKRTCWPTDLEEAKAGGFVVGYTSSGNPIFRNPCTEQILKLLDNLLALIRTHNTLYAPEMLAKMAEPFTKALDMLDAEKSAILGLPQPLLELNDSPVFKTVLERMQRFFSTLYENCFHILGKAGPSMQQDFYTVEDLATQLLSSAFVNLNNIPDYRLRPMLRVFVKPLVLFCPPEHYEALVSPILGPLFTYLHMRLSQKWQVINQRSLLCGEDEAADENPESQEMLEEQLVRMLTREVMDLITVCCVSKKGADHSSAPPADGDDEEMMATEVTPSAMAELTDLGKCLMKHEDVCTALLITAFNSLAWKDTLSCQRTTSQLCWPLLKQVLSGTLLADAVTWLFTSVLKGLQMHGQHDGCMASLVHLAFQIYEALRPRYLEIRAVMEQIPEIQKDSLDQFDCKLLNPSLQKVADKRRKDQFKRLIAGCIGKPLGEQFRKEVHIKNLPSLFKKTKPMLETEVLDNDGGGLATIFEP", "UniProt Q9Y4E6, whole entry, looked up": "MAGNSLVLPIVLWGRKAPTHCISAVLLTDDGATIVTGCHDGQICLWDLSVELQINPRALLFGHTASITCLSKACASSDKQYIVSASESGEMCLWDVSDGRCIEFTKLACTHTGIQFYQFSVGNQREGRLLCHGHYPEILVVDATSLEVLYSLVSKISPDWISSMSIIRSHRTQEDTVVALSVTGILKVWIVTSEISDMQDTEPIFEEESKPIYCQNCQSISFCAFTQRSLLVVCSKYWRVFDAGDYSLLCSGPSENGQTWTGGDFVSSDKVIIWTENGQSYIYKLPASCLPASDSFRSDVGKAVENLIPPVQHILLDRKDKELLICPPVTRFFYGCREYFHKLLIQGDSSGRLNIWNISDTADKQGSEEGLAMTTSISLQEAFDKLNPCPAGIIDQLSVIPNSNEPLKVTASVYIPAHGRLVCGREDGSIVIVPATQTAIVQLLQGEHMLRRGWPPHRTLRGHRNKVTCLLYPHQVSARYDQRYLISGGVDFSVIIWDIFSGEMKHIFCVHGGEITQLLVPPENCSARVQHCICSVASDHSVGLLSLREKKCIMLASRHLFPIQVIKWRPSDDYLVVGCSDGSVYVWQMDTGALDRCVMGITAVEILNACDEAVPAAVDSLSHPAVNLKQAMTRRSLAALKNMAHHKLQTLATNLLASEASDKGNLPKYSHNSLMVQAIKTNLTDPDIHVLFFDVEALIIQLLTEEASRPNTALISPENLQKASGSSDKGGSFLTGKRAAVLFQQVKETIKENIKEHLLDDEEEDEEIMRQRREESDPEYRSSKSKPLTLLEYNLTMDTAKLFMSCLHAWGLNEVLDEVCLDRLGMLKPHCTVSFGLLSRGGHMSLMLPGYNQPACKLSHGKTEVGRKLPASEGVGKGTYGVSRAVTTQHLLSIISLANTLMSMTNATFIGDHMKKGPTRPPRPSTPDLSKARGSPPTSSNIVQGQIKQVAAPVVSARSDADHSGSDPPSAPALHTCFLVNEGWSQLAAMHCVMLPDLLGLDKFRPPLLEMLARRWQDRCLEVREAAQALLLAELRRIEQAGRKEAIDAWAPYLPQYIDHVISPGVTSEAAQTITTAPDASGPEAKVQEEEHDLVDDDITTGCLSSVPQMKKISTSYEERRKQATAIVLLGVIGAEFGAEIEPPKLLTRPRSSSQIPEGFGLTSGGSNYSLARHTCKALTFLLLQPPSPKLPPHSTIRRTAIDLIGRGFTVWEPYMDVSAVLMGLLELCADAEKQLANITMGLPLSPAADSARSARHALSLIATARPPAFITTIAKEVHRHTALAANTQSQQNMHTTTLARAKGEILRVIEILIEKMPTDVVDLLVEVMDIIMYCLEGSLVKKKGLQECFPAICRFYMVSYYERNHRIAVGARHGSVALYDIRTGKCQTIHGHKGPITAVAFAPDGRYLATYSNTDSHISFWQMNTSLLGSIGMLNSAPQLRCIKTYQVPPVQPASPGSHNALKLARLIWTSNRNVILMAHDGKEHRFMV", "UniProt Q8IWR0": "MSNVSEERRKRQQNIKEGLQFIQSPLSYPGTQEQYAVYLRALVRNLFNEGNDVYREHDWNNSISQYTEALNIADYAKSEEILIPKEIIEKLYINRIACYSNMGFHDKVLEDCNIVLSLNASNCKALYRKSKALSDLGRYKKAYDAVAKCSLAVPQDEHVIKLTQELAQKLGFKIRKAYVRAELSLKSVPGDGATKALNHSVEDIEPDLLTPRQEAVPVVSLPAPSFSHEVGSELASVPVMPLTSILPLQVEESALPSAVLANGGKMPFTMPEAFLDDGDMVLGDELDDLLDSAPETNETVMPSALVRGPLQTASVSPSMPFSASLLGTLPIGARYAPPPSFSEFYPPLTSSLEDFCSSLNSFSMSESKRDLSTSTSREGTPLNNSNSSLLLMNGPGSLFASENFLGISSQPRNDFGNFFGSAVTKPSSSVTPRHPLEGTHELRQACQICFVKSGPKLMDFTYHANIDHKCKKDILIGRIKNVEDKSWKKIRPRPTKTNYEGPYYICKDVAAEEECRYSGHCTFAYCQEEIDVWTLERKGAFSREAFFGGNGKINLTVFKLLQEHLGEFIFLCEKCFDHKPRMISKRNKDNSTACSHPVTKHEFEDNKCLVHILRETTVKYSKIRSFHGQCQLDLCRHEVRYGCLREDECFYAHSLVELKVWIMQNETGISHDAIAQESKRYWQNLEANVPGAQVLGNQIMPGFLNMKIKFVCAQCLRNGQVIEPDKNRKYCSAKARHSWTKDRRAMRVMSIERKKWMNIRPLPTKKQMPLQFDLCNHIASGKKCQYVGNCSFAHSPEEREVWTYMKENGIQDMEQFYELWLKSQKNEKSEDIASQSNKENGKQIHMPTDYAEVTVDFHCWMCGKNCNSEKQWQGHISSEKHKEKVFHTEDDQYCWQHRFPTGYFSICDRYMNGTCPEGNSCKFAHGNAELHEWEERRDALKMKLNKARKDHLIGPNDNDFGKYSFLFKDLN", "UniProt Q9BQA1": "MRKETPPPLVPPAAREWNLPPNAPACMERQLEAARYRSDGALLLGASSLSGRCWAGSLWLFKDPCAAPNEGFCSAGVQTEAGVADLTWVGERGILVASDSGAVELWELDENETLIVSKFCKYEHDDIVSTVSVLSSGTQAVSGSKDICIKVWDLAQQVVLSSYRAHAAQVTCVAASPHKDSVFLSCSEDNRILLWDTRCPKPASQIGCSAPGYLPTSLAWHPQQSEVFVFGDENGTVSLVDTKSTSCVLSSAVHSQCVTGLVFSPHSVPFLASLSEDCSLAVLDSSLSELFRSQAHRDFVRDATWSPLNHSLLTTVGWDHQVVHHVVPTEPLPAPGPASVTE", "UniProt Q86Y07": "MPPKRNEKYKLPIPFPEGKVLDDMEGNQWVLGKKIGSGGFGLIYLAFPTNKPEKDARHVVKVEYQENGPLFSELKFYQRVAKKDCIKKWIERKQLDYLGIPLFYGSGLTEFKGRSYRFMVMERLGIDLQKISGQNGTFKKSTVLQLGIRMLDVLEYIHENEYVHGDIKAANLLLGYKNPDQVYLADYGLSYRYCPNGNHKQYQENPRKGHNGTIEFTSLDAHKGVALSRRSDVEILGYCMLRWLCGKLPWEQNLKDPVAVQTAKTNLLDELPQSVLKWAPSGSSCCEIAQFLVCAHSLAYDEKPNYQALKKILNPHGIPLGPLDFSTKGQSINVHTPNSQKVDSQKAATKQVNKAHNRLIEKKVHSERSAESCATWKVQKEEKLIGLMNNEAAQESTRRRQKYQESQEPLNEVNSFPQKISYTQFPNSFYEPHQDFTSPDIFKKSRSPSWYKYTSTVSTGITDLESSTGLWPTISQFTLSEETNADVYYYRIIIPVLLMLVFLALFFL", "UniProt P27348": "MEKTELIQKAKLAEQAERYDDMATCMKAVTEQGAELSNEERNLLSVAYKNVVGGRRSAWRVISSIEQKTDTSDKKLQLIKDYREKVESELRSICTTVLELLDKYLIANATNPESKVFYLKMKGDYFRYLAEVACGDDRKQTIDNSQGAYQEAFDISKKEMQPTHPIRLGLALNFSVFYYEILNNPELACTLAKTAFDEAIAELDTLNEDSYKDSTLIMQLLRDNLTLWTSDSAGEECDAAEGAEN", "UniProt Q8N4Q0": "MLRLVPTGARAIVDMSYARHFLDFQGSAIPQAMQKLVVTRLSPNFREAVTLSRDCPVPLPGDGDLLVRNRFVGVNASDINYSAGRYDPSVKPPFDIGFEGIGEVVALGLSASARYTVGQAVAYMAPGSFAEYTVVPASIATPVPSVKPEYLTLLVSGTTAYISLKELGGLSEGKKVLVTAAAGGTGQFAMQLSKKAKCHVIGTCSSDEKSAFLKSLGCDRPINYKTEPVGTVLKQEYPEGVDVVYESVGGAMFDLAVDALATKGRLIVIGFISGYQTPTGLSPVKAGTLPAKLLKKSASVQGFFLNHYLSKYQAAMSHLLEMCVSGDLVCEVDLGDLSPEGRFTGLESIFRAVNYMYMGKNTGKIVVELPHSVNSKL"},
  "source": "the supplement of paper PMC11732987",
  "about": "“Enantioselective OTUD7B fragment discovery through chemoproteomics screening and high-throughput optimisation” (Communications Chemistry, 2025)",
  "note": "The list shows a part of the results. The data scatter; read single values as rough.",
  "data": [
    {"compound": "ClCC(=O)N[C@H]1CCCc2ccccc12", "assay": "log2 mean competition ratio of IA-DTB cysteine labelling (DMSO/compound) (log2 ratio); higher = stronger cysteine engagement by compound", "settings": "200 µM; treatment time: 4 h; cell line lysate: HEK293T", "protocol": "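IA-DTB competitive cysteine chemoproteomics in HEK293T RIPA lysate. Lysates were treated with compound 29 or 30 at 50 or 200 µM for 4 h, then IA-DTB (500 µM, 1 h), trypsin-digested, NeutrAvidin-enriched and analysed by diaPASEF. Competition ratio = intensity DMSO / intensity compound (n=4 treated, n=64 DMSO); binding: mean log2 CR ≥ 1 and p ≤ 0.05 plus QC filters. Target is the cysteine site.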", "values": [
      {"target": "ZC3H3 C643 (UniProt Q8IXZ2)", "log2 mean competition ratio": 0.342},
      {"target": "YEATS2 C1173 (UniProt Q9ULM3)", "log2 mean competition ratio": 0.27},
      {"target": "WLS C162 (UniProt Q5T9L3)", "log2 mean competition ratio": 0.219},
      {"target": "ZC3H11A C22 (UniProt O75152)", "log2 mean competition ratio": 0.215},
      {"target": "XPO5 C765 (UniProt Q9HAV4)", "log2 mean competition ratio": 0.174},
      {"target": "XRCC1 C362", "log2 mean competition ratio": -0.18},
      {"target": "XPO4 C796 (UniProt Q9C0E2)", "log2 mean competition ratio": -0.0206},
      {"target": "XPO5 C37 (UniProt Q9HAV4)", "log2 mean competition ratio": 0.142},
      {"target": "YEATS2 C1232 (UniProt Q9ULM3)", "log2 mean competition ratio": -0.237},
      {"target": "WDTC1 C236 (UniProt Q8N5D0)", "log2 mean competition ratio": 0.000269},
      {"target": "VPS35L C588 (UniProt Q7Z3J2)", "log2 mean competition ratio": -0.19},
      {"target": "WNK3 C502 (UniProt Q9BYP7)", "log2 mean competition ratio": -0.148},
      {"target": "XPO7 C606", "log2 mean competition ratio": 0.0752},
      {"target": "WASHC3 C48 (UniProt Q9Y3C0)", "log2 mean competition ratio": -0.155},
      {"target": "WDR19 C979 (UniProt Q8NEZ3)", "log2 mean competition ratio": -0.157},
      {"target": "WDR62 C1072 (UniProt O43379)", "log2 mean competition ratio": 0.322},
      {"target": "WDR7 C234 (UniProt Q9Y4E6)", "log2 mean competition ratio": -0.215},
      {"target": "WAPL C929 (UniProt Q7Z5K2)", "log2 mean competition ratio": 0.0663},
      {"target": "YEATS2 C102 (UniProt Q9ULM3)", "log2 mean competition ratio": 0.225},
      {"target": "XPO6 C547 (UniProt Q96QU8)", "log2 mean competition ratio": 0.147},
      {"target": "WDR20 C514 (UniProt Q8TBZ3)", "log2 mean competition ratio": -0.109},
      {"target": "VPS35 C156", "log2 mean competition ratio": -0.0556},
      {"target": "ZC3H14 C693 (UniProt Q6PJT7)", "log2 mean competition ratio": -0.173},
      {"target": "VPS50 C218 (UniProt Q96JG6)", "log2 mean competition ratio": 0.0182},
      {"target": "WDR62 C599 (UniProt O43379)", "log2 mean competition ratio": 0.176},
      {"target": "ZC3H7A C506 (UniProt Q8IWR0)", "log2 mean competition ratio": 0.0828},
      {"target": "WDR77 C26 (UniProt Q9BQA1)", "log2 mean competition ratio": -0.115},
      {"target": "XPO5 C736 (UniProt Q9HAV4)", "log2 mean competition ratio": -0.0526},
      {"target": "VRK2 C373 (UniProt Q86Y07)", "log2 mean competition ratio": 0.00194},
      {"target": "WDR6 C653 (UniProt Q9NNW5)", "log2 mean competition ratio": -0.466},
      {"target": "YWHAQ C25 (UniProt P27348)", "log2 mean competition ratio": 0.00057},
      {"target": "XRCC1 C132", "log2 mean competition ratio": -0.0169},
      {"target": "WDR75 C100 (UniProt Q8IWA0)", "log2 mean competition ratio": -0.033},
      {"target": "ZADH2 C218 (UniProt Q8N4Q0)", "log2 mean competition ratio": 0.12},
      {"target": "WDR75 C12 (UniProt Q8IWA0)", "log2 mean competition ratio": 0.0564},
      {"target": "YWHAG C112 (UniProt P61981)", "log2 mean competition ratio": -0.302},
      {"target": "WARS1 C274", "log2 mean competition ratio": 0.145}
    ]}
  ]
}
